In the supplement of paper PMC10398353:
Values joined by “and” are separate entries in the source; they are usually repeats but may differ in a detail not shown here. Identical values can stand only once. Counter-ions that a name gives are not always drawn. ± gives the standard deviation of the averaged measurements. This is one part of the list. The data scatter; read single values as rough.

tested on: Salmonella enterica serovar Typhimurium ST313 D23580; assay: normalized bacterial growth (OD600 20 h minus 0 h, interquartile-mean normalized) (fraction of plate interquartile mean); higher = more bacterial growth (less inhibition); conditions: LPM (pH 5.8, low phosphate, low Mg2+), concentration: 10 µM, temperature: 37 °C

| SMILES | normalized bacterial growth |
| --- | --- |
| O=P(O)(O)C(Cl)(Cl)P(=O)(O)O [Clodronic acid] | 0.954 |
| N#C/C(=C/c1ccc(O)c(O)c1)C(=O)N1CCc2ccccc21 [Tyrphostin AG 528] | 1.04 |
| C[C@@]12C[C@@]3(O)O[C@@H](O1)[C@]1(COC(=O)c4ccccc4)[C@H]3C[C@@]12O[C@@H]1O[C@H](CO)[C@@H](O)[C@H](O)[C@H]1O | 0.917 |
| CCC1=C(C)CN(C(=O)NCCc2ccc(S(=O)(=O)NC(=O)N[C@H]3CC[C@H](C)CC3)cc2)C1=O [Glimepiride] | 0.881 |
| CC(C)C[C@H](NC(=O)[C@H]1O[C@@H]1C(=O)O)C(=O)NCCCCN=C(N)N | 1.01 ± 0.015 |
| CC1(C)NC(=O)N(c2ccc([N+](=O)[O-])c(C(F)(F)F)c2)C1=O [Nilutamide] | 0.487 |
| CCCCCCc1ccc(O)cc1O | 0.969 |
| COC(=O)[C@@H]1[C@H]2C[C@H]3c4[nH]c5ccccc5c4CCN3C[C@@H]2CC[C@@H]1O [Yohimbine hydrochloride] | 1.34 |
| COC(=O)[C@@H]1[C@H]2C[C@H]3c4[nH]c5ccccc5c4CCN3C[C@@H]2CC[C@@H]1O | 0.882 and 1.22 |
| C=C(C)[C@@H]1CC=C(C(=O)O)CC1 [(-)-Perillic acid] | 1.41 |
| C=C(C)[C@@H]1CC=C(C(=O)O)CC1 | 1.22 and 1.26 |
| C[C@]12C=CC(=O)C=C1CC[C@@H]1[C@@H]2[C@@H](O)C[C@@]2(C)[C@H]1CC[C@]2(O)C(=O)COC(=O)CCC(=O)O | 1.09 |
| Oc1c2ccccc2c2c3c(cccc13)N=N2 | 0.873 |
| COc1ccc2cc([C@@H](C)C(=O)O)ccc2c1 [(R) -Naproxen sodium salt] | 1.19 |
| COC(=O)C[C@H]1C(C)(C)C(=O)[C@@H]2CC3=C4CC(=O)O[C@@H](c5ccoc5)[C@]4(C)CC[C@@H]3[C@@]1(C)C2=O | 0.876 |
| COc1ccc(C(=O)CC(=O)O)c2c1C=CC(C)(C)O2 | 1.19 |
| CC(C)=CCC[C@](C)(O)C1CC=C(C)CC1 (stereo partly specified) | 1.1 |
| CC(=O)OCC(=O)[C@@]1(O)CC[C@H]2[C@@H]3C[C@H](C)C4=CC(=O)C=C[C@]4(C)[C@H]3[C@@H](O)C[C@@]21C [6alpha-METHYLPREDNISOLONE ACETATE] | 0.703 |
| CCOC(=O)C1=C[C@]2(CC)CCCN3CCc4c(n1c1ccccc41)[C@@H]32 | 0.899 |
| CCOC(=O)C1=C[C@]2(CC)CCCN3CCc4c(n1c1ccccc41)[C@@H]32 [Vinpocetine] | 0.802 |
| CC1CN(S(=O)(=O)c2cccc3cnccc23)CCN1 (stereo unspecified) | 0.679 |
| COc1ccc(C2CC(=O)c3c(O)cc(O)cc3O2)cc1O (stereo unspecified) | 0.995 |
| COc1cnc(NS(=O)(=O)c2ccc(N)cc2)nc1 | 1.02 |
| O=C(O)CCC(=O)Nc1ccc(S(=O)(=O)Nc2nccs2)cc1 | 1.47 |
| Cc1cccc(CN2CCN(C(c3ccccc3)c3ccc(Cl)cc3)CC2)c1 (stereo unspecified) | 0.977 |
| CC1CNCCN1S(=O)(=O)c1cccc2cnccc12 (stereo unspecified) | 0.96 |

| SMILES | normalized bacterial growth |
| --- | --- |
| CNCCC(Oc1ccccc1OC)c1ccccc1 (stereo unspecified) [Nisoxetine hydrochloride] | 0.896 |
| COc1cc(CCC(C)=O)ccc1O | 1.24 |
| CCCCCCCC/C=C\CCCCCCCC(=O)NCCc1ccc(O)c(O)c1 [N-Oleoyldopamine] | 1.21 |
| CN(C)[C@@H]1C(O)=C(C(N)=O)C(=O)[C@@]2(O)C(O)=C3C(=O)c4c(O)ccc(Cl)c4[C@@](C)(O)[C@H]3C[C@@H]12 [Chlortetracycline hydrochloride] | 0.157 |
| CN(C)[C@@H]1C(O)=C(C(N)=O)C(=O)[C@@]2(O)C(O)=C3C(=O)c4c(O)ccc(Cl)c4[C@@](C)(O)[C@H]3C[C@@H]12 | 0.11 |
| O=C1OC2(c3ccc(O)cc3Oc3cc(O)ccc32)c2ccccc21 | 0.655 |
| CC(=O)N(CC(C)C(=O)O)c1c(I)cc(I)c(N)c1I (stereo unspecified) [Iocetamic acid] | 1.15 |
| CC(=O)OCC1=C(C(=O)O)N2C(=O)[C@@H](NC(=O)CSc3ccncc3)[C@H]2SC1 [Cephapirin sodium] | 1.29 |
| C[C@]12CC[C@@H]3c4ccc(O)cc4CC[C@H]3[C@@H]1CCC2=O | 0.792 |
| C[C@]12CC[C@@H]3c4ccc(O)cc4CC[C@H]3[C@@H]1CCC2=O [Estrone] | 0.92 |
| COC1=C2C[C@@H](C)C[C@H](OC)[C@H](O)[C@@H](C)/C=C(\C)[C@H](OC(N)=O)[C@@H](OC)/C=C\C=C(/C)C(=O)NC(=CC1=O)C2=O | 0.85 |
| NC(=O)NC(=O)Cc1ccccc1 | 1.09 |
| COc1cc(C)c(C(=O)Oc2cc(C)c(C(=O)O)c(O)c2C)c(O)c1C=O | 0.79 |
| c1ccc2[nH]c(-c3cscn3)nc2c1 | 0.834 |
| OC[C@@H](O)[C@@H](O[C@@H]1O[C@H](CO)[C@H](O)[C@H](O)[C@H]1O)[C@H](O)[C@@H](O)CO | 0.826 |
| CN1[C@@H](CC(=O)c2ccccc2)CCC[C@H]1C[C@H](O)c1ccccc1 | 0.953 and 1 |
| CN1[C@@H](CC(=O)c2ccccc2)CCC[C@H]1C[C@H](O)c1ccccc1 [alpha-Lobeline hydrochloride] | 0.721 |
| CSc1nc(N)c2ncn([C@@H]3O[C@H](COP(=O)(O)OP(=O)(O)OP(=O)(O)O)[C@H](O)C3O)c2n1 (stereo partly specified) [2-Methylthioadenosine triphosphate tetrasodium] | 1.16 |
| CC(=O)C(C)=O ["2,3-Butanedione"] | 0.976 |
| O=c1c2cc(O)c(O)cc2oc2cc(O)c([C@@H]3O[C@H](CO)[C@@H](O)[C@H](O)[C@H]3O)c(O)c12 | 0.913 |
| COc1ccc(-c2cc(=O)c3c(O)cc(O[C@@H]4O[C@H](CO[C@@H]5O[C@@H](C)[C@H](O)[C@@H](O)[C@H]5O)[C@@H](O)[C@H](O)[C@H]4O)cc3o2)cc1O | 1.127 ± 0.0052 |
| COC(=O)C[C@H]1C(C)(C)[C@@H](O)[C@@H]2CC3=C4CC(O)O[C@@H](c5ccoc5)[C@]4(C)CCC3[C@@]1(C)C2=O (stereo partly drawn) ["3,16-DIDEOXYMEXICANOLIDE-3beta-DIOL"] | 0.914 |
| Cc1cccc2c3c(ccc12)C1=C(C(=O)C3=O)[C@@H](C)CO1 | 1.38 |
| CN(C)CCCO[C@@H]1[C@H]2OC(C)(C)O[C@H]2O[C@@H]1[C@H](O)CO | 0.968 |
| CN(C)CCCO[C@@H]1[C@H]2OC(C)(C)O[C@H]2O[C@@H]1[C@H](O)CO [Amiprilose hydrochloride] | 0.975 ± 0.092 |
